Measured values from PubChem BioAssay AID330 (DTP/NCI, 2004).
The list shows only some results of the screen, not a fair sample: it is rich in T/C values a quarter to a half above the control, in often repeated tests (any T/C) and in doses without a T/C. Further doses and runs are listed elsewhere. T/C is the treated group as % of the vehicle group. Some entries give survivors of the animals treated and no T/C: the source holds a T/C of zero for them, seemingly a mark for toxic or unscored doses. Some doses without a T/C left all or most animals alive at the check, yet need not have been tolerated: survival well below the control is almost never listed, so the zero probably covers shortened survival too. Counts of survivors are from the toxicity check (mostly the fifth day) where no day follows; animals may have died later. Schedule codes are those of the source, taken here to give the interval after Q, in days (D) or hours (H), and the number of doses after X. Some structures stand for samples that the source files as different forms (salt, stereo form or complex); doses refer to the form tested. Some entries were tested several times; the results are listed from low to high. Additions like (4×) say how often a value occurs here. For survival time, this PubChem deposit counts one and a half times the control or more as active, and values a quarter to a half above the control carry no call in these data; other NCI protocols may use other cut-offs. Some T/C values carry the count of animals alive at the toxicity check (mostly the fifth day); where none is given, no animal had died by that day.

Test system: P388 leukemia ip, CD2F1 mice, survival T/C
Assay: NCI In Vivo Anticancer Drug Screen. Data for tumor model P388 Leukemia (intraperitoneal) in CD2F1 (CDF1) mice
Settings: T/C endpoint: median survival time, higher T/C = longer survival
[1] = dose: 80.0 mg/kg/injection, schedule: Q01DX005 (ip), vehicle: Klucel (hydroxypropylcellulose) (HPC)
[2] = dose: 80.0 mg/kg/injection, schedule: Q01DX009 (ip), vehicle: Klucel (hydroxypropylcellulose) (HPC)
[3] = dose: 100.0 mg/kg/injection, schedule: Q01DX001 (ip), vehicle: Klucel (hydroxypropylcellulose) (HPC)
[4] = dose: 200.0 mg/kg/injection, schedule: Q01DX001 (ip), vehicle: Klucel (hydroxypropylcellulose) (HPC)
[5] = dose: 240.0 mg/kg/injection, schedule: Q04DX003 (ip), vehicle: Klucel (hydroxypropylcellulose) (HPC)
[6] = dose: 400.0 mg/kg/injection, schedule: Q01DX001 (ip), vehicle: Klucel (hydroxypropylcellulose) (HPC)

With `COc1cc2c[n+](C)c3c4cc5c(cc4ccc3c2cc1OC)OCO5` the survivor count (dose: 64.0 mg/kg/injection, schedule: Q01DX009 (ip), vehicle: water) was 1 of 10, the survivor count (dose: 64.0 mg/kg/injection, schedule: Q01DX009 (sc), vehicle: water) was 6 of 10 and the survivor count (dose: 64.0 mg/kg/injection, schedule: Q03HX008 (ip), vehicle: saline with Tween-80) was 9 of 10. For the same molecule, the survivor count (dose: 64.0 mg/kg/injection, schedule: Q04DX003 (ip), vehicle: water) was 9 of 10, the T/C (dose: 64.0 mg/kg/injection, schedule: Q08DX002 (ip), vehicle: saline with Tween-80) was 144 % of control and the T/C (dose: 72.0 mg/kg/injection, schedule: Q04DX003 (ip), vehicle: distilled water + Tween-80) was 133 % of control. For the same molecule, the T/C [1] was 87, 91, 95, 107, 115, 125, 170 % of control, the survivor count [1] was 3 of 6, 2 of 3, 5 of 6, 3 of 3, 6 of 6 and the T/C [2] was 90, 91, 92, 93, 95, 104, 118, 141, 156 % of control. For the same molecule, the survivor count [2] was 0 of 6, 1 of 3, 2 of 3, 4 of 6, 5 of 6, 3 of 3 (2×), 6 of 6 (2×), the survivor count (dose: 80.0 mg/kg/injection, schedule: Q01DX009 (ip), vehicle: water) was 4 of 6 and the T/C [3] was 115, 122 [5 of 6 alive], 123, 124, 127, 128, 134, 138, 139, 143 (2×), 145 (2×), 146, 147, 150 (2×), 153, 154, 157, 160 (2×), 166, 168, 170, 171, 174, 177, 180 (2×), 200 % of control. The survivor count [3] was 6 of 6, the survivor count (dose: 100.0 mg/kg/injection, schedule: Q01DX009 (ip), vehicle: saline with Tween-80) was 3 of 6 and the T/C (dose: 100.0 mg/kg/injection, schedule: Q04DX002 (ip), vehicle: Klucel (hydroxypropylcellulose) (HPC)) was 144 % of control. The T/C (dose: 120.0 mg/kg/injection, schedule: Q04DX002 (ip), vehicle: Klucel (hydroxypropylcellulose) (HPC), evaluated on day 30) was 99 [2 of 3 alive], 104, 108, 113, 117, 119 [2 of 3 alive], 121, 123, 125, 127, 128, 133 (2×), 134, 138, 146, 150 (3×), 153, 162, 165 (2×), 166 [2 of 3 alive], 168, 172, 183, 192, 202, 203, 204 % of control, the T/C (dose: 120.0 mg/kg/injection, schedule: Q04DX002 (ip), vehicle: Klucel (hydroxypropylcellulose) (HPC), evaluated on day 35) was 149, 158, 168 % of control and the survivor count (dose: 120.0 mg/kg/injection, schedule: Q04DX002 (ip), vehicle: Klucel (hydroxypropylcellulose) (HPC)) was 3 of 3 and 6 of 6. The T/C (dose: 120.0 mg/kg/injection, schedule: Q04DX003 (ip), vehicle: Klucel (hydroxypropylcellulose) (HPC)) was 100, 106, 110, 116, 117 (2×), 122 (3×), 126, 133, 134, 137 (2×), 139, 142, 143 [2 of 3 alive], 144, 145, 148, 149, 150, 151, 152, 153, 155, 157, 159, 167, 169, 170, 172, 191 % of control (2×), the T/C (dose: 128.0 mg/kg/injection, schedule: Q01DX001 (ip), vehicle: saline with Tween-80) was 144 % of control and the survivor count (dose: 128.0 mg/kg/injection, schedule: Q01DX001 (ip), vehicle: water) was 1 of 10. For the same molecule, the survivor count (dose: 128.0 mg/kg/injection, schedule: Q01DX001 (sc), vehicle: water) was 10 of 10, the survivor count (dose: 128.0 mg/kg/injection, schedule: Q01DX009 (ip), vehicle: saline with Tween-80) was 9 of 10 and the survivor count (dose: 128.0 mg/kg/injection, schedule: Q04DX003 (ip), vehicle: water) was 0 of 10. For the same molecule, the survivor count (dose: 128.0 mg/kg/injection, schedule: Q08DX002 (ip), vehicle: water) was 0 of 10, the T/C [4] was 90, 95, 116, 119, 121, 127, 127 [5 of 6 alive], 129 [5 of 6 alive], 131 [5 of 6 alive], 132, 136, 139, 142, 148, 150, 152 (2×), 154, 156 (2×), 157 (2×), 161, 163, 165, 166, 170 [5 of 6 alive], 181, 205 % of control and the survivor count [4] was 3 of 3 and 6 of 6. The survivor count (dose: 200.0 mg/kg/injection, schedule: Q04DX003 (ip), vehicle: distilled water + Tween-80) was 6 of 8, the T/C (dose: 240.0 mg/kg/injection, schedule: Q04DX002 (ip), vehicle: Klucel (hydroxypropylcellulose) (HPC), evaluated on day 30) was 87, 89, 91 (2×), 94, 100 (2×), 101, 104, 105, 109, 112, 113, 123, 125, 127, 132 [5 of 6 alive], 133, 136, 140 (2×), 152, 171, 175, 188 % of control and the T/C (dose: 240.0 mg/kg/injection, schedule: Q04DX002 (ip), vehicle: Klucel (hydroxypropylcellulose) (HPC), evaluated on day 35) was 104 and 109 % of control. For the same molecule, the survivor count (dose: 240.0 mg/kg/injection, schedule: Q04DX002 (ip), vehicle: Klucel (hydroxypropylcellulose) (HPC)) was 2 of 3, 5 of 6 (2×), 3 of 3, 6 of 6, the T/C [5] was 87, 89, 91 (2×), 94 (4×), 95 [2 of 3 alive], 98, 98 [5 of 6 alive], 99 (3×), 102, 104, 105 (3×), 107, 108, 111, 116, 119, 121, 134, 148, 195 % of control and the survivor count [5] was 2 of 3, 5 of 6, 3 of 3, 6 of 6. For the same molecule, the T/C [6] was 86, 87 [5 of 6 alive], 88 [2 of 3 alive], 90 [4 of 6 alive], 91, 95, 96 (2×), 96 [4 of 6 alive], 97, 102, 103, 108 [2 of 3 alive], 109 [5 of 6 alive], 110 [5 of 6 alive], 112 (2×), 116, 121 (3×), 133, 138, 142, 200 % of control, the survivor count [6] was 1 of 3, 4 of 6, 5 of 6, 3 of 3, 6 of 6 and the survivor count (dose: 400.0 mg/kg/injection, schedule: Q04DX002 (ip), vehicle: Klucel (hydroxypropylcellulose) (HPC)) was 6 of 6. The survivor count (dose: 512.0 mg/kg/injection, schedule: Q01DX001 (ip), vehicle: saline with Tween-80) was 4 of 10.
